Assay [1] addresses T1, TMEM65 (UniProt Q6PI78).
T1 sequence: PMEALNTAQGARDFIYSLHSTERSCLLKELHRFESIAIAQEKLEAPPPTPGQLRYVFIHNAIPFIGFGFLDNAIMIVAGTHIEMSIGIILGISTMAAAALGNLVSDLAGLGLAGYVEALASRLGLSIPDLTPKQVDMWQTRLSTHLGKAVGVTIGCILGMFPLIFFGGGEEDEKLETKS
Put plainly: SEC; gel filtration, fractions immunoblotted for TMEM65 and mitochondrial proteins; details only in Supplementary Fig. S5j.

By UniProt entry, the sequences of proteins in these tests, tags left out. Residues count along the entry.
UniProt Q8TD26: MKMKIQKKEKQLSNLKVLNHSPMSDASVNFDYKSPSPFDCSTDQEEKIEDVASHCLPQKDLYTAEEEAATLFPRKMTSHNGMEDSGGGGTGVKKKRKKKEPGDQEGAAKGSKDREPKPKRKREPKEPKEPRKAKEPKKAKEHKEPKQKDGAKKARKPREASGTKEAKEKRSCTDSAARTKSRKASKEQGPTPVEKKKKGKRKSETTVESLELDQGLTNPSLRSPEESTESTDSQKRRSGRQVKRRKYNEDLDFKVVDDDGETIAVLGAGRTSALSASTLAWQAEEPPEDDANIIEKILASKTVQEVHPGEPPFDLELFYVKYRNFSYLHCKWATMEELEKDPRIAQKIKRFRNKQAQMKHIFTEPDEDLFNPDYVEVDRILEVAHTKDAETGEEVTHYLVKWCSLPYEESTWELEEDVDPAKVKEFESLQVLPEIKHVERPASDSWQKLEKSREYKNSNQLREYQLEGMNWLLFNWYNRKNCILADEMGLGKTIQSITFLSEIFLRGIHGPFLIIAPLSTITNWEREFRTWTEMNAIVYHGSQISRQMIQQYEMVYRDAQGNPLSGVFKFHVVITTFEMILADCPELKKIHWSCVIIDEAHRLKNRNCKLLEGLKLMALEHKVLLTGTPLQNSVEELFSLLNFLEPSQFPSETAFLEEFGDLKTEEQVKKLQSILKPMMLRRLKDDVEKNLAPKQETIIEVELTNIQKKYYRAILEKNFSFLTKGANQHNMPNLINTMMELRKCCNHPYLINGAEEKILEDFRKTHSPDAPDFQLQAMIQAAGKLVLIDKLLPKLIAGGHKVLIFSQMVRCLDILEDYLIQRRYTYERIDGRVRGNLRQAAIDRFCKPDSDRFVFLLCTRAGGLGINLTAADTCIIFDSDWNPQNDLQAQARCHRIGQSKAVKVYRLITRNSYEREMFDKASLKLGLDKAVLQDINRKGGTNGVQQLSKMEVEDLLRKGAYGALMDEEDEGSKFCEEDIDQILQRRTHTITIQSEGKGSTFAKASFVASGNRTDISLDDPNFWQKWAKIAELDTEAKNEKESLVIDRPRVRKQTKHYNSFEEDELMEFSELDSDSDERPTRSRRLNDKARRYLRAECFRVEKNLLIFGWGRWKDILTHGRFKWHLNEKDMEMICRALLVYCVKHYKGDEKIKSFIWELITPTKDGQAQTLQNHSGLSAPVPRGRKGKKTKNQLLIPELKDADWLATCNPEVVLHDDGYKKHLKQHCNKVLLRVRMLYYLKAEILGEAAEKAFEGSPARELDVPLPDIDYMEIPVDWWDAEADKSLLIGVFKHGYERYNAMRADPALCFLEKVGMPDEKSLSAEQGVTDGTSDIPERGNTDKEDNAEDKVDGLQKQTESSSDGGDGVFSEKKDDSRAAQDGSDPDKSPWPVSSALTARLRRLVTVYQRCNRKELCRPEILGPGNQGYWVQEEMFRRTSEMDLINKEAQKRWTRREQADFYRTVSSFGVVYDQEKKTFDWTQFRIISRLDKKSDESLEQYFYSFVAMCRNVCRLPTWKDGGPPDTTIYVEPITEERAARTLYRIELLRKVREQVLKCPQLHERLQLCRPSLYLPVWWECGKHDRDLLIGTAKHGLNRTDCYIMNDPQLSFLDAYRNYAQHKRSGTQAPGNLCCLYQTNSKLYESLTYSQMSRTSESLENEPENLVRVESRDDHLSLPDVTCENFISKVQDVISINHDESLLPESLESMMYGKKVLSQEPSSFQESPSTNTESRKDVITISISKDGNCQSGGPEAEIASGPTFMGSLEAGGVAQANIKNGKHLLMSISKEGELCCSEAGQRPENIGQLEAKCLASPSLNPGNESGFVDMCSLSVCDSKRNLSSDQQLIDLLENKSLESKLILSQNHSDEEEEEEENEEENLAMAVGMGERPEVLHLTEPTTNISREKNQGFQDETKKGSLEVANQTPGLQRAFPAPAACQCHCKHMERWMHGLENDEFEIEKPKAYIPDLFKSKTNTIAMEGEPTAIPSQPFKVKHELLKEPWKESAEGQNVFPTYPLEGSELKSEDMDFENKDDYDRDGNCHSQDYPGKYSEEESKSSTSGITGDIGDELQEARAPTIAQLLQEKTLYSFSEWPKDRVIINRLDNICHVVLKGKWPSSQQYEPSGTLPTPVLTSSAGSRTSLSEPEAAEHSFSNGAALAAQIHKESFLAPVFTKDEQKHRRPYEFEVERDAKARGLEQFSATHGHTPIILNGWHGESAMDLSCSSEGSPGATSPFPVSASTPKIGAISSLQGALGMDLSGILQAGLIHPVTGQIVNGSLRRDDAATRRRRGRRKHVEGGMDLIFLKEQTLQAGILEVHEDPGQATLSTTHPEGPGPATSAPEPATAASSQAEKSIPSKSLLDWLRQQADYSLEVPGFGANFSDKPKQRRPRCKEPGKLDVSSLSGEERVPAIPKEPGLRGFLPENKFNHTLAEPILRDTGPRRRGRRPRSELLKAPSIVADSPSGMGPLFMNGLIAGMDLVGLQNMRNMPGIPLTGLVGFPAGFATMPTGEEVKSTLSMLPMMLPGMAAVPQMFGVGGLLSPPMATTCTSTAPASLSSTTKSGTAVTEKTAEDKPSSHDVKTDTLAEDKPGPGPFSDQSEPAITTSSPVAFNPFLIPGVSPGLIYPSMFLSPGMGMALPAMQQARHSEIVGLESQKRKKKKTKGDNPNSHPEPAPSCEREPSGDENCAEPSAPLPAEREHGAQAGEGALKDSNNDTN
UniProt P25705, residues 44-553: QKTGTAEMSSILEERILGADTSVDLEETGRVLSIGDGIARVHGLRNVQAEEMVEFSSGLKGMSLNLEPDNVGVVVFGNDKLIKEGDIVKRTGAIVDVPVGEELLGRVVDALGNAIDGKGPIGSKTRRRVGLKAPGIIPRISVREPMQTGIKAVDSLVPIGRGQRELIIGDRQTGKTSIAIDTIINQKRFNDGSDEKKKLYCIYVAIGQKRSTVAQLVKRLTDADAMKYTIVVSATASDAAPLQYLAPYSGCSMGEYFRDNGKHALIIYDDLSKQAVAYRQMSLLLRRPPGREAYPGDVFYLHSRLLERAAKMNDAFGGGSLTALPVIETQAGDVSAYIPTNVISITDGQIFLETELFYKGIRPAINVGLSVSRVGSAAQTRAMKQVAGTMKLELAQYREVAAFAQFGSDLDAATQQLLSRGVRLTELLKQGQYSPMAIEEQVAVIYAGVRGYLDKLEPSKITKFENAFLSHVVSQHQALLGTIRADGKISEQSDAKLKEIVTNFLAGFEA
UniProt Q969H0: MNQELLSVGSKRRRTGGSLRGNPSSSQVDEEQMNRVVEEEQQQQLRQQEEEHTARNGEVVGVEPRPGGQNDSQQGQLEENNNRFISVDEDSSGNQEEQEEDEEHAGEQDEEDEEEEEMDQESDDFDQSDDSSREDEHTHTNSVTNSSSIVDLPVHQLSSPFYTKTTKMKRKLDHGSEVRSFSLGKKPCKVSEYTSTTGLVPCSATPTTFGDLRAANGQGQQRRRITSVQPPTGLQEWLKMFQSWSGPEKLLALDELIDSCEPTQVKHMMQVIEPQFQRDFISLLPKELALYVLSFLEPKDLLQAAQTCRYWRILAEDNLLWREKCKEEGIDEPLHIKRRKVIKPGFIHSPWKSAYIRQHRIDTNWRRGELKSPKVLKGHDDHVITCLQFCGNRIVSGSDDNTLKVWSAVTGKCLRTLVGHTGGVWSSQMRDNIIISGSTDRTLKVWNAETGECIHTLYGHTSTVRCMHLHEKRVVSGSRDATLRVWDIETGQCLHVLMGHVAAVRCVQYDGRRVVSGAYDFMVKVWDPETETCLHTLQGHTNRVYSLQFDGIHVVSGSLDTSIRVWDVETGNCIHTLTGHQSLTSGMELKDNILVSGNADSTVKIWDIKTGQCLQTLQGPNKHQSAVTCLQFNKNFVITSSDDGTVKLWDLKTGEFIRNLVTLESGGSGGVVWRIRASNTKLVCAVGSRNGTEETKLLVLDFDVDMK
UniProt P49841: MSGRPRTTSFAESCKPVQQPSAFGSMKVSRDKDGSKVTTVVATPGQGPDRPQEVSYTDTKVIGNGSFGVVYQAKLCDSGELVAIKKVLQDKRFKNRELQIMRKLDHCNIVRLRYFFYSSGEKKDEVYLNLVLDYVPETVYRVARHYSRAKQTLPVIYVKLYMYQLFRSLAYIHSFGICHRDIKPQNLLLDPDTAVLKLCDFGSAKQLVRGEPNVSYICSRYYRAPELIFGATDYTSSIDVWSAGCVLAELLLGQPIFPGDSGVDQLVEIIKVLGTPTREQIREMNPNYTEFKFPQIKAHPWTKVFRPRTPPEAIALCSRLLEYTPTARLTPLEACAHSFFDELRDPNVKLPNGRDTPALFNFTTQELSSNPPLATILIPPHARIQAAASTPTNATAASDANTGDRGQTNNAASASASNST
UniProt P51970: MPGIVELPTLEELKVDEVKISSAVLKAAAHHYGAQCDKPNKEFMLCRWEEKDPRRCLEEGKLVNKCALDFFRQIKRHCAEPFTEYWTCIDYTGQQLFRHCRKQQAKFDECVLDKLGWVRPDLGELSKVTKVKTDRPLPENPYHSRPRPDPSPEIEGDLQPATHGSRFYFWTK
UniProt Q9NQB0: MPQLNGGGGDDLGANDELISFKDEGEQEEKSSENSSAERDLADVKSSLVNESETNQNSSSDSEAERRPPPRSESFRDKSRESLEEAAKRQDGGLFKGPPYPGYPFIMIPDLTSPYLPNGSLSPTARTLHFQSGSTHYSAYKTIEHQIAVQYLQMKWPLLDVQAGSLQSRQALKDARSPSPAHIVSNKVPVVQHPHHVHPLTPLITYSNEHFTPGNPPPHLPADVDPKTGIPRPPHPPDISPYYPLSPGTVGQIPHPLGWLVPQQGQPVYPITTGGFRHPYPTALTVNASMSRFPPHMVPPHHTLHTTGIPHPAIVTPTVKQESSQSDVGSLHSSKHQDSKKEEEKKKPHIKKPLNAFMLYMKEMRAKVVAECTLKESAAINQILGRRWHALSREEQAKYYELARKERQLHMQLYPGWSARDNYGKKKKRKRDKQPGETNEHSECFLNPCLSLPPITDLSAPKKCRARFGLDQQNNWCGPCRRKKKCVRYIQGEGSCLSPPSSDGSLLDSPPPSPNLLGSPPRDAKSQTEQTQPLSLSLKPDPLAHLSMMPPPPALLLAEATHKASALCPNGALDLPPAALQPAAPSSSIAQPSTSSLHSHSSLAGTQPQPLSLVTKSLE
UniProt P35222: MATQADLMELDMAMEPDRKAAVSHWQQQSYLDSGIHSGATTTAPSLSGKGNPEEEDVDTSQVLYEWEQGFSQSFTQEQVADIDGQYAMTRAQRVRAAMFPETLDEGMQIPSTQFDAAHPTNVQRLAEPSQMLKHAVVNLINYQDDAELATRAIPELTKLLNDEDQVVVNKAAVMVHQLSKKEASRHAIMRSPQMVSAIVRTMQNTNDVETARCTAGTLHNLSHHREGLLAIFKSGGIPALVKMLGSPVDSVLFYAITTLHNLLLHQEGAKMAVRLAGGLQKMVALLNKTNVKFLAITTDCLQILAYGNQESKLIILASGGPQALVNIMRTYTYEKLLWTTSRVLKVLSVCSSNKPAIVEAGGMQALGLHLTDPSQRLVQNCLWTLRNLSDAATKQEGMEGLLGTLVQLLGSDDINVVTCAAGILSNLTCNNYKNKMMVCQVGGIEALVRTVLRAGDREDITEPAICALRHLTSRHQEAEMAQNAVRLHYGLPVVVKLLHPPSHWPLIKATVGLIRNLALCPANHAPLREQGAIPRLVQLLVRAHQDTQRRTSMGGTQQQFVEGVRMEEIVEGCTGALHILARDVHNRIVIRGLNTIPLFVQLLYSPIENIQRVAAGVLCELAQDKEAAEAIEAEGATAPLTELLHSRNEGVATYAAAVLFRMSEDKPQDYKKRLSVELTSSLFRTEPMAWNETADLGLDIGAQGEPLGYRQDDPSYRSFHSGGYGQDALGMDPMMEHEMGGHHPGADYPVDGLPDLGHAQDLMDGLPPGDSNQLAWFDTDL

For assay [2], the target named is Chromodomain helicase DNA binding protein 6 (CHD6), endogenous (human (endogenous in HCT116)) (UniProt Q8TD26). Put plainly: co-IP; endogenous proteins; HCT116 lysates in IP lysis buffer (50 mM Tris-HCl pH 7.5, 150 mM NaCl, 0.1% Triton X-100, 0.1% NP-40, 1 mM EDTA) incubated with CHD6 antibody or IgG at 4 °C overnight, protein A/G agarose, immunoblot.
For another assay, the target named is Myc-tagged CHD6 (human) (UniProt Q8TD26). Put plainly: co-IP; 293T cells transfected with Myc-tagged CHD6 and Flag-tagged FBXW7; lysates pulled down with Myc-tagged magnet beads, immunoblot. A general note: In western blotting, separated proteins are transferred to a membrane and probed.
Assay [3] addresses CHD6, exogenous (Fig. 4f) (human) (UniProt Q8TD26). Nature of the assay: co-IP; 293T cells transfected with the indicated plasmids; immunoprecipitated with an anti-Flag antibody, immunoblot.
For assay [4], the target named is CHD6 (domain mapping assay) (human) (UniProt Q8TD26). Put plainly: domain mapping assay; CHD6 constructs tested for interaction with TCF4; details only in Supplementary Fig. S7d-g.
Assay [5] deals with CHD6, transfected (gel filtration, Fig. 7b) (human) (UniProt Q8TD26). Put plainly: SEC; lysate of CHD6-transfected HEK293T cells on Superose 6, eluted with PBS pH 7.4 at 0.4 mL/min, 40 fractions immunoblotted; co-elution at fractions 29-32 (~2000 Kd).
Assay [6] has as its target T1, TMEM65. Nature of the assay: co-IP; TMEM65 and PPOX; cells, bait and antibody shown only in Supplementary Fig. S5i.

Results are given in words; binding and its absence hold for the method and conditions named. For some assays here: Binding seen in cells or lysates may run through a third protein. Some binding calls cover weakened binding; strength is not graded here.

As for ATP5a (from UniProt P25705 44-553), the binding result with TMEM65 [1] is reported as “binds”. Still for that read-out and setting: under ATP5b (from UniProt P06576 48-529) stands “binds”. Take “FBXW7α, endogenous (from UniProt Q969H0 1-707)”: in assay [2], the binding entry is given as “binds”.

As for “Flag-tagged FBXW7 (from UniProt Q969H0 1-707)”, the binding result in the assay with Myc-tagged CHD6 (human) was “binds”. For “GSK3β, exogenous (Fig. 4f) (from UniProt P49841 1-420) (enzyme)”, the binding entry in assay [3] is listed as “binds”. Take “Glycogen synthase kinase-3β (GSK3β), endogenous (from UniProt P49841 1-420) (enzyme)”: the binding entry in assay [2] is reported as “binds”.

Consider NDUFA8 (from UniProt P51970 1-172), for which, in the assay with TMEM65 [1], the binding entry was “binds”. As to “TCF4 (domain mapping assay) (from UniProt Q9NQB0 1-619)”, the binding entry in assay [4] is on record as “binds”.

Regarding “TCF4 in HEK293T lysate (from UniProt Q9NQB0 1-619)”, the binding result in assay [5] was “binds”. For the molecule “TCF4, endogenous (HCT116) (from UniProt Q9NQB0 1-619)”, in assay [2], the binding entry is reported as “binds”. Regarding “β-catenin in HEK293T lysate (from UniProt P35222 1-781)”, in assay [5], the binding result is given as “binds”. For “β-catenin, endogenous (HCT116) (from UniProt P35222 1-781)”, the binding entry in assay [2] is “binds”.

B1: Protoporphyrinogen oxidase (PPOX) (enzyme, UniProt P50336 1-477)
chain: MGRTVVVLGGGISGLAASYHLSRAPCPPKVVLVESSERLGGWIRSVRGPNGAIFELGPRGIRPAGALGARTLLLVSELGLDSEVLPVRGDHPAAQNRFLYVGGALHALPTGLRGLLRPSPPFSKPLFWAGLRELTKPRGKEPDETVHSFAQRRLGPEVASLAMDSLCRGVFAGNSRELSIRSCFPSLFQAEQTHRSILLGLLLGAGRTPQPDSALIRQALAERWSQWSLRGGLEMLPQALETHLTSRGVSVLRGQPVCGLSLQAEGRWKVSLRDSSLEADHVISAIPASVLSELLPAEAAPLARALSAITAVSVAVVNLQYQGAHLPVQGFGHLVPSSEDPGVLGIVYDSVAFPEQDGSPPGLRVTVMLGGSWLQTLEASGCVLSQELFQQRAQEAAATQLGLKEMPSHCLVHLHKNCIPQYTLGHWQKLESARQFLTAHRLPLTLAGASYEGVAVNDCIESGRQAAVSVLGTEPNS
Consider B1, for which the binding entry with TMEM65 [1] and with TMEM65 [6] was “binds” throughout.

These data come from publication PMC9727023.
